Results are given in words; binding and its absence hold for the method and conditions named. In cells and extracts the contact can be indirect. Here binding means that the protein was enriched with, or labelled near, the bait; the list need not be complete.
Target: FLAG-PRMT1, Q99873
Assay: affinity purification with mass spectrometry; Huh7 cells stably expressing FLAG-PRMT1 (FLAG vector as control) lysed and immunoprecipitated by FLAG beads; label-free quantitative proteomics, n = 2
Conditions: remark: other sources report otherwise

B1: FBXO7, endogenous, Q9Y3I1 1-522 (protein)
chain: MRLRVRLLKRTWPLEVPETEPTLGHLRSHLRQSLLCTWGYSSNTRFTITLNYKDPLTGDEETLASYGIVSGDLICLILQDDIPAPNIPSSTDSEHSSLQNNEQPSLATSSNQTSMQDEQPSDSFQGQAAQSGVWNDDSMLGPSQNFEAESIQDNAHMAEGTGFYPSEPMLCSESVEGQVPHSLETLYQSADCSDANDALIVLIHLLMLESGYIPQGTEAKALSMPEKWKLSGVYKLQYMHPLCEGSSATLTCVPLGNLIVVNATLKINNEIRSVKRLQLLPESFICKEKLGENVANIYKDLQKLSRLFKDQLVYPLLAFTRQALNLPDVFGLVVLPLELKLRIFRLLDVRSVLSLSAVCRDLFTASNDPLLWRFLYLRDFRDNTVRVQDTDWKELYRKRHIQRKESPKGRFVMLLPSSTHTIPFYPNPLHPRPFPSSRLPPGIIGGEYDQRPTLPYVGDPISSLIPGPGETPSQFPPLRPRFDPVGPLPGPNPILPGRGGPNDRFPFRPSRGRPTDGRLSFM
With B1 the binding was “binds”.

From PMC11153525
